This is one part of the list.
Compound: Cc1cc(ccc1-c1ccccc1)C(=O)N1CCCN(CC1)C(=O)CCl [compound 10]
Test: probe-labelled cysteine peptide fold change vs DMSO (competition) (log2 fold change); higher = less target engagement (more negative = stronger competition)
Settings: THP-1, incubation time: 4 h
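Also: competitive profiling in live THP-1 cells: cysteine peptides tagged with an iodoacetamide desthiobiotin (IA-DTB) probe, intensity after compound treatment relative to DMSO-treated cells.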

Sequences of proteins named here, by UniProt entry; tags and fusion partners are left off. A change or cut given only in a name is not applied to a line headed by its entry.
UniProt Q8NFC6: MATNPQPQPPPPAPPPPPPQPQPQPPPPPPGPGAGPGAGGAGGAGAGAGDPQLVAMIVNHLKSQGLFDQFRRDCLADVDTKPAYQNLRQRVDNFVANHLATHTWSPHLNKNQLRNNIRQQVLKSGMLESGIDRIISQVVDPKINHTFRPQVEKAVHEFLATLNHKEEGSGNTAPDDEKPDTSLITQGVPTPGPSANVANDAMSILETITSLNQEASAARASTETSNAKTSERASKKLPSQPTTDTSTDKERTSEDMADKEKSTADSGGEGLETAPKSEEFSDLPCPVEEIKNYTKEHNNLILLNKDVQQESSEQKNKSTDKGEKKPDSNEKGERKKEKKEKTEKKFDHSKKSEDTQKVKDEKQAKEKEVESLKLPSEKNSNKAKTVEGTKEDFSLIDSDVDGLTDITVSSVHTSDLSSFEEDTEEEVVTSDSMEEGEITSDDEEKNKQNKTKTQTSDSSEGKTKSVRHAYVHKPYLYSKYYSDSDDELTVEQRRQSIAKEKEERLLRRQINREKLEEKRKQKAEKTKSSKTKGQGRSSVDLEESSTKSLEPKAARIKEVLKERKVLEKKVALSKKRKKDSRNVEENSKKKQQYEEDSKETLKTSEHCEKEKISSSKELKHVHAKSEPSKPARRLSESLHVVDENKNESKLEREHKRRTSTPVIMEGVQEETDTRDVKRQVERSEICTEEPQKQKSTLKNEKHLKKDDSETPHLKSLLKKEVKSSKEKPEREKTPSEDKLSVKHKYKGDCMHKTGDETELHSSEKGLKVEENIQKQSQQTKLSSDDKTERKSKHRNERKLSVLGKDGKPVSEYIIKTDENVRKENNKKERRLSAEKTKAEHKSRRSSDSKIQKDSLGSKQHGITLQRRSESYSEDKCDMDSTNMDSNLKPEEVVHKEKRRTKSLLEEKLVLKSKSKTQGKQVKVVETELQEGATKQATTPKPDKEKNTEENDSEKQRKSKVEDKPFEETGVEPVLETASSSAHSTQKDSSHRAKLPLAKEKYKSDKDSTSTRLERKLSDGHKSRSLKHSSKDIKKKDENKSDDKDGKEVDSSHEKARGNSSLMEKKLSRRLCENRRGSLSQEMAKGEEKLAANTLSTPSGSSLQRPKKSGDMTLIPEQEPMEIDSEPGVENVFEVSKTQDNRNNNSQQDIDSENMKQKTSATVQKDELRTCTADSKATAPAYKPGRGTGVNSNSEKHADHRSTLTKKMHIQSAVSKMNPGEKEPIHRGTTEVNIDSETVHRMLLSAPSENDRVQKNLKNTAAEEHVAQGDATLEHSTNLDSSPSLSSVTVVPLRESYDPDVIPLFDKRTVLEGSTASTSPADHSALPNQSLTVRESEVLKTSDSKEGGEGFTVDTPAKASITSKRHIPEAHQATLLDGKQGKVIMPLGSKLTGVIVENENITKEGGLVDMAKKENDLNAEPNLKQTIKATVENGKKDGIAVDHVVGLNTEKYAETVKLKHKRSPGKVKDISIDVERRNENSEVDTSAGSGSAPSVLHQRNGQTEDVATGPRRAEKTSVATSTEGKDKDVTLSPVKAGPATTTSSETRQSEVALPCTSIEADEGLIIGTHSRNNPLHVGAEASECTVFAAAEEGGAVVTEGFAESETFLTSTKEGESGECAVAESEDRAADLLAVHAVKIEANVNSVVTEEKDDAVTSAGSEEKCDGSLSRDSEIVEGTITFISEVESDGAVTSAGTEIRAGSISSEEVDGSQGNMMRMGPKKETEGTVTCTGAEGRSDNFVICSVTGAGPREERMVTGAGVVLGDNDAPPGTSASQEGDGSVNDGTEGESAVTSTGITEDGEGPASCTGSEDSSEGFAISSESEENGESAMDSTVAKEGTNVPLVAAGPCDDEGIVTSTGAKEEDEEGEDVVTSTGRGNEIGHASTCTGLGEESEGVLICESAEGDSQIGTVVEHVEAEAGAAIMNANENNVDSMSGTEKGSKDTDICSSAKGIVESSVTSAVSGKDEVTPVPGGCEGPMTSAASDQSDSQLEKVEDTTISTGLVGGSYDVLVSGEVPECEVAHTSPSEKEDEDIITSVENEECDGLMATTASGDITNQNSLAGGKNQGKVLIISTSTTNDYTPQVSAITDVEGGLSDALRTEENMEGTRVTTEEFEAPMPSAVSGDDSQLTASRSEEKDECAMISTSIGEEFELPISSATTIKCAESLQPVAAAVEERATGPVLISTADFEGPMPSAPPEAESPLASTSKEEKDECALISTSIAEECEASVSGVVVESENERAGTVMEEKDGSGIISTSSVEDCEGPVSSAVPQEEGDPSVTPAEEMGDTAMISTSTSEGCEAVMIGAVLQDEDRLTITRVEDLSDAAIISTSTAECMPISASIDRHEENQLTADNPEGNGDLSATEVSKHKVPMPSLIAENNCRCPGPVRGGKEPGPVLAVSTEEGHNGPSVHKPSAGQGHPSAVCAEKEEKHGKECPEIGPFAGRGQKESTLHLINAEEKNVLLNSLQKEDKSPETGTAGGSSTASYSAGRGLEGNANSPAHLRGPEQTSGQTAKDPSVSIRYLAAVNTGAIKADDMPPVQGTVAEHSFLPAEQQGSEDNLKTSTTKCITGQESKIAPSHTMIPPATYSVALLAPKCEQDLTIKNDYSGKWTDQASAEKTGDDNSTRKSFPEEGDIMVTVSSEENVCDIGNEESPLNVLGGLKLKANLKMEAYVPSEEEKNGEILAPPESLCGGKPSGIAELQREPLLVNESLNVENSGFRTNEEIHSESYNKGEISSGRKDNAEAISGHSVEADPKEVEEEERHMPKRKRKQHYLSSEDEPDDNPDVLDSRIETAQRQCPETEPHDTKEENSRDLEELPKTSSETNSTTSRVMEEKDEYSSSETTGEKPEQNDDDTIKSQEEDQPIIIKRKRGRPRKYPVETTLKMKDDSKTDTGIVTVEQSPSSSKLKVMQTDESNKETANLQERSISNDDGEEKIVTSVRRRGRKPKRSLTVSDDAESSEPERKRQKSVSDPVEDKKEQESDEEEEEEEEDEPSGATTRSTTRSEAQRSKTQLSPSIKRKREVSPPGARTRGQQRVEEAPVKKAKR
UniProt P54687: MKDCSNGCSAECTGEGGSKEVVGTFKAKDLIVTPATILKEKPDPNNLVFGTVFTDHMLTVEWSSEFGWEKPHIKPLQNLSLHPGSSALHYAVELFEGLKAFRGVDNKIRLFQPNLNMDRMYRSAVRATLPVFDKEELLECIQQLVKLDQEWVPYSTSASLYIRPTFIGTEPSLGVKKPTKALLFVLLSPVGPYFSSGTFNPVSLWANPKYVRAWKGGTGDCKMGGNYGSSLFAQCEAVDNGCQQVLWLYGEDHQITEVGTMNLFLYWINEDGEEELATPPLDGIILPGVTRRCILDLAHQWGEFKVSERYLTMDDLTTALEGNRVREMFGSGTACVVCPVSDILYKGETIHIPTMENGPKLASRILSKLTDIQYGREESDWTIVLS
UniProt Q6ZT62: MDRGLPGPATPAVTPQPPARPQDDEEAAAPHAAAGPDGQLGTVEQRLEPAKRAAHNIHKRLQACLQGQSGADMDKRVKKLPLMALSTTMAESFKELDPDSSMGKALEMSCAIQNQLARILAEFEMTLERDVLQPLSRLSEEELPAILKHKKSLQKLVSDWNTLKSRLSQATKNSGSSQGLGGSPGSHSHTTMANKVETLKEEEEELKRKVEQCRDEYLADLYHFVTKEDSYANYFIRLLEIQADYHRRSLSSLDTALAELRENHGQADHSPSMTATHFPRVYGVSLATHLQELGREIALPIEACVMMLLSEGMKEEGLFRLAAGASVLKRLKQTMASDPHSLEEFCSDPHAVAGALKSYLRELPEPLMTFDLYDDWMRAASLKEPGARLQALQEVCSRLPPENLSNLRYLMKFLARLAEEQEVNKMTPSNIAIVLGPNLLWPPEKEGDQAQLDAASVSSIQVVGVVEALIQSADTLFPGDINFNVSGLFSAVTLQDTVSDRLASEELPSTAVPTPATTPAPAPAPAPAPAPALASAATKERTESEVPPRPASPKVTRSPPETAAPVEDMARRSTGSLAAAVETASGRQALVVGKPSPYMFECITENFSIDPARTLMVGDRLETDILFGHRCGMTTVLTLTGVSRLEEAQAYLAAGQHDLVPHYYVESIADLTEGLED
UniProt O15382: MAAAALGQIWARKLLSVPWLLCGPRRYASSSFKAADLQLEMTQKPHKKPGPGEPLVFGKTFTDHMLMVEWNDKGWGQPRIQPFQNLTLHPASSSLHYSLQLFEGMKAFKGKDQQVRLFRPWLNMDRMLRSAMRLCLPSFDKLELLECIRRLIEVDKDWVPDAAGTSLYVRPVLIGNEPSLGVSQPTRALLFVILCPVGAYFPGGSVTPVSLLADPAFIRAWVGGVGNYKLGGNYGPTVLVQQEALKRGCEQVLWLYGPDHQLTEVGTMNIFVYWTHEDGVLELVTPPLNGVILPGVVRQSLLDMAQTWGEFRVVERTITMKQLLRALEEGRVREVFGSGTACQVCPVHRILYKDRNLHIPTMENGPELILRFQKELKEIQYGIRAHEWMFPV
UniProt Q99933: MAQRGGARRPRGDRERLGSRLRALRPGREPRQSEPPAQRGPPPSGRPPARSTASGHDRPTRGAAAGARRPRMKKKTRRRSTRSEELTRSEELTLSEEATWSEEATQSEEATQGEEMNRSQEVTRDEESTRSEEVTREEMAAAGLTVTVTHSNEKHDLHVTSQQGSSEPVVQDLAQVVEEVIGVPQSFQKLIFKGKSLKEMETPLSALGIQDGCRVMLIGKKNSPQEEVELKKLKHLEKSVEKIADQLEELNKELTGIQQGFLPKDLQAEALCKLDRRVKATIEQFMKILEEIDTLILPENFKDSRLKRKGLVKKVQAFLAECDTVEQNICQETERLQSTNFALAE
UniProt Q96GD4, whole entry, looked up: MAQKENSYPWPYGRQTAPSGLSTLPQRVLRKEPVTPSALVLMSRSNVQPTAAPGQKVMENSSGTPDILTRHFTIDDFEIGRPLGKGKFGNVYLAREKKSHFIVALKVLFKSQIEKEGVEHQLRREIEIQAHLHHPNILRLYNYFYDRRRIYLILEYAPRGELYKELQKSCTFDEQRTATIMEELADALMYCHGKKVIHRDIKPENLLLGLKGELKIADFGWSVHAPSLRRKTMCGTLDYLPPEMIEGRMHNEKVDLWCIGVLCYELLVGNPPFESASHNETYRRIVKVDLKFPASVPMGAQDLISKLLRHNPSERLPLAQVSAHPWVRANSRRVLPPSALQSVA
UniProt Q13323: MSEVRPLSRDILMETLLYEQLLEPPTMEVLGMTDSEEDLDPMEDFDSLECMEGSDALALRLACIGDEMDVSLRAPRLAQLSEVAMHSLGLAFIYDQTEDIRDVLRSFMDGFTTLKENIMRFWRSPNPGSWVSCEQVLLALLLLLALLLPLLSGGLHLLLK
UniProt O95861: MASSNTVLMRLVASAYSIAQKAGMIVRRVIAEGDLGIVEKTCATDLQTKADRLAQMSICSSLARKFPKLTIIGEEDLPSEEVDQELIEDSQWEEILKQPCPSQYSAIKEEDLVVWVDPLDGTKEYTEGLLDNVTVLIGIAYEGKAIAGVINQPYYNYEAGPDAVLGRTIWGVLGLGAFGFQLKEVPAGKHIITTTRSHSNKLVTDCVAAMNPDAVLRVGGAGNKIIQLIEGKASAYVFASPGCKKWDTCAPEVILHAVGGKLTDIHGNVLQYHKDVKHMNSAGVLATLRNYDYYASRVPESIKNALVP
UniProt Q7Z569: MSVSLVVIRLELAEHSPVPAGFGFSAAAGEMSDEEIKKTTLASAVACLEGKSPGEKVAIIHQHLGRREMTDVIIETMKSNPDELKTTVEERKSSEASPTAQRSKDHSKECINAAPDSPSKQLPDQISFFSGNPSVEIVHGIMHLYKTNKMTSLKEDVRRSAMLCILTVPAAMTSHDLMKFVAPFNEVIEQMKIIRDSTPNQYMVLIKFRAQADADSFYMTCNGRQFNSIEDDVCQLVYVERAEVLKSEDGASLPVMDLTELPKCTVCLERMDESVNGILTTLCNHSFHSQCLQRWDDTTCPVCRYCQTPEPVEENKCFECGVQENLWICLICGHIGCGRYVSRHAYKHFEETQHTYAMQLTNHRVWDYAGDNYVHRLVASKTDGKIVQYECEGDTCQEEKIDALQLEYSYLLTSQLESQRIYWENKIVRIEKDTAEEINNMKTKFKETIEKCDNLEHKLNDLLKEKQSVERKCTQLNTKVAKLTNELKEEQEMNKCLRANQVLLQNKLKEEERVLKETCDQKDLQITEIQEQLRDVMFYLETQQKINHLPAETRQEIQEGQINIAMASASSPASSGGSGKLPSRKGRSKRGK
UniProt Q9NWV8, whole entry, looked up: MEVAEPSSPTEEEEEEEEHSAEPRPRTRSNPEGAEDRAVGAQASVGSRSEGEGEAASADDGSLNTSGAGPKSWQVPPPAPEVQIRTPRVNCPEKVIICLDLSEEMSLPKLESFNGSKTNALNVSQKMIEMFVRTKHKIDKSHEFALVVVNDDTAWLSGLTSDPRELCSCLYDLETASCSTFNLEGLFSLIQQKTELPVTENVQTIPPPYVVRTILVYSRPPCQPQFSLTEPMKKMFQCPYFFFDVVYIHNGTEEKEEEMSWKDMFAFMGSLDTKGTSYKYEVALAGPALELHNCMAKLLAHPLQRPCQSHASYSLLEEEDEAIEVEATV

Target	probe-labelled cysteine peptide fold change (10 µM)	probe-labelled cysteine peptide fold change (50 µM)
BOD1L1_Q8NFC6_1170_TCTADSK (UniProt Q8NFC6)	-0.153	-0.337
BCKDK_O14874_111+118_CLPFIIGCNPTILHVHELYIR (UniProt O14874)	0.237	0.162
BAZ1A_Q9NRL2_621_ILHALCGK (UniProt Q9NRL2)	0.0294	0.339
ATXN2L_Q8WWM7_135_MLHFLTAVVGSTCDVK (UniProt Q8WWM7)	-0.0379	0.1
AVEN_Q9NQS1_251_SVAAGCPVLLGK (UniProt Q9NQS1)	-0.0473	-0.58
BCAT1_P54687_221_GGTGDCK (UniProt P54687)	-0.0709	-0.199
BICRA_Q9NZM4_1382_KPLGTAPHCPR (UniProt Q9NZM4)	-0.0185	0.223
BAZ2A_Q9UIF9_1802_NHHSDLTFCEIILMEMESHDAAWPFLEPVNPR (UniProt Q9UIF9)	-0.0363	-0.652
BARGIN_Q6ZT62_213_RKVEQCRDEYLADLYHFVTK (UniProt Q6ZT62)	-0.115	-0.074
BCR_P11274_737_HVFLFTDLLLCTK (UniProt P11274)	0.156	0.143
BCOR_Q6W2J9_1080_SVTLEEAIAEQNESERCEYSVGNK (UniProt Q6W2J9)	-0.297	-0.343
BCAT2_O15382_147_LCLPSFDKLELLECIR (UniProt O15382)	-0.159	-0.0428
BCAT2_O15382_342_EVFGSGTACQVCPVHR (UniProt O15382)	-0.0334	-0.296
BIRC6_Q9NR09_1293_GCDLLQEVSVTIRR (UniProt Q9NR09)	0.00797	-0.251
BOP1_Q14137_108_TTEEQVQASTPCPR (UniProt Q14137)	-0.185	-0.638
BLM_P54132_120_EVVCTTQNTPTVK (UniProt P54132)	-0.14	-0.117
BPTF_Q12830_1241_EGCQSDSMR (UniProt Q12830)	-0.163	-0.204
BAZ1B_Q9UIG0_1205_LILCDECNK (UniProt Q9UIG0)	0.00236	-0.157
AZU1_P20160_222_RGGICNGDGGTPLVCEGLAHGVASFSLGPCGR (UniProt P20160)	-0.133	-0.157

Some of the entries above in another layout:
Target | probe-labelled cysteine peptide fold change (10 µM) | probe-labelled cysteine peptide fold change (50 µM)
BCAT2_O15382_342_EVFGSGTACQVCPVHR (UniProt O15382) | -0.0334 | -0.296
BIRC6_Q9NR09_1293_GCDLLQEVSVTIRR (UniProt Q9NR09) | 0.00797 | -0.251

(further entries)

Target	probe-labelled cysteine peptide fold change (10 µM)	probe-labelled cysteine peptide fold change (50 µM)
ATXN10_Q9UBB4_84_SSHAVELACRDPSQVENLASSLQLITECFR (UniProt Q9UBB4)	0.507	0.322
BAG1_Q99933_330_VQAFLAECDTVEQNICQETER (UniProt Q99933)	-0.213	0.363
BMS1_Q14692_757_FLVEAPHDWDLEEVMNSIRDCFVTGK (UniProt Q14692)	0.0114	-0.129
BOD1L1_Q8NFC6_2384_HKVPMPSLIAENNCR (UniProt Q8NFC6)	-0.187	-0.276
AURKB_Q96GD4_191_TATIMEELADALMYCHGK (UniProt Q96GD4)	0.167	0.142
BLNK_Q8WV28_271_TTPVASQQNASSVCEEKPIPAER (UniProt Q8WV28)	-0.0862	-0.34
BOD1L1_Q8NFC6_1947_DTDICSSAK (UniProt Q8NFC6)	-0.306	-0.123
BIK_Q13323_63_LACIGDEMDVSLR (UniProt Q13323)	-0.093	0.428
BPTF_Q12830_940_AVQMCSKPR (UniProt Q12830)	-0.098	-0.2
BPNT1_O95861_249_WDTCAPEVILHAVGGK (UniProt O95861)	-0.0743	0.181
BRAP_Q7Z569_164_SAMLCILTVPAAMTSHDLMK (UniProt Q7Z569)	0.132	0.0808
BIRC6_Q9NR09_390_ISCFGSGSCPHFLAAATK (UniProt Q9NR09)	0.0714	-0.0238
BCAT1_P54687_140_EELLECIQQLVK (UniProt P54687)	0.26	0.65
BMP2K_Q9NSY1_160_LQTGFTEPEVLQIFCDTCEAVAR (UniProt Q9NSY1)	-0.845	0.362
BABAM1_Q9NWV8_222_TILVYSRPPCQPQFSLTEPMKK (UniProt Q9NWV8)	-0.0728	-0.794
ATXN10_Q9UBB4_92_NACIECSVNQNSIR (UniProt Q9UBB4)	0.126	0.196
AURKB_Q96GD4_191_TATIMEELADALMYCHGKK (UniProt Q96GD4)	0.0441	-0.459
BPNT1_O95861_100_QPCPSQYSAIKEEDLVVWVDPLDGTK (UniProt O95861)	-0.0812	-0.394
BAZ1B_Q9UIG0_1231_AFHLFCLRPALYEVPDGEWQCPACQPATAR (UniProt Q9UIG0)	-0.0528	-0.0992

Reference: the supplement of paper PMC12067093, “Discovery and optimisation of a covalent ligand for TRIM25 and its application to targeted protein ubiquitination” (Chemical Science, 2025)
